Results on two sequences are retold here after patent US6002071.

For series [1], the system named is TBBF (TAC-box binding factor) in nuclear / whole cell extract (Nicotiana tabacum). Description: EMSA. The following applies: protein in an extract. Background: Mobility shift assays separate free from complexed probe on a gel.
For series [2], the system named is TBBF (TAC-box binding factor, FPLC-purified + 17 and 19 kD polypeptides) (Nicotiana tabacum). Description: EMSA. The following applies: one complex with ds oligo; 7469 units/ug in E-FPLC-UF (1 unit binds 1 fmol oligo); purified native protein.

Construct, isoform or probe ends are uncertain for at least one entry. For part of these data: Where cells or extracts were used, other partners may take part. For part of these data: The comparison behind a weaker result is the experiment's own reference, which may not be listed here.

On to “AGCTACTCTACAGTACTC / AGCTGAGTACTGTAGAGT [ds TAC-box oligonucleotide (dsTACc/dsTACn)]”, for which the binding result is recorded as “binds” in series [1] (whole cell extracts, Mg2+ dependent, incubation with EDTA at 37 C inhibits) and “binds” in series [2].

In the case of “CAACTCTAGTGTACTCCC (double strand) [EAS4 Fragment D with M2-TAC-box]”, the binding result in series [1] (variant of EAS4 promoter Fragment D wild type) is “binds more weakly”.
